Assay results: PubChem BioAssay AID2685 (National Center for Advancing Translational Sciences (NCATS), 2010)
The list shows a part of the results. These are further read-outs of the screen, such as a control signal, another cell line or another target. No call is given for them. Compounds called inactive in the main read-out are mostly missing here. The note in brackets gives the kind of curve behind each potency; many fits are weak.

Experiment: qHTS Assay for Lipid Storage Modulators in Drosophila S3 Cells;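 for cell number change: cells counted by Cell Tracker Red CMTPX staining in the red channel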
Details: BODIPY lipid droplet fluorescence, 18-24 h; for cell number change: measured here: cell count max response, cells fed with added oleic acid
Outline: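 Drosophila S3 cells loaded with oleic acid (400 uM, as added) and compounds at several concentrations; lipid droplets imaged by 488-nm laser-scanning cytometry, 500–530 nm intensity and object ratio to cell channel. Percent activity normalized to 20 uM Triacsin C.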

[1] = measured here: cell number channel AC50, cells fed with added oleic acid
[2] = measured here: lipid fluorescence (Fed channel) AC50, cells fed with added oleic acid

Compound	cell number change	AC50 [1]	AC50 [2]
Cc1ccc(NC(=O)CC2SC(=O)NC2=O)cc1 (stereo unspecified)	-10.7%	0.206 µM [falling, partial curve, poor fit]	23.1 µM [rising, single point]
CCOc1ccc(S(=O)(=O)N2CCNC(=O)C2)cc1	7.08%	–	–
CCOC(=O)C1=C(N)N2C(=O)C(C)SC2=C(C(=O)OC)C1c1cccc(OC)c1 (stereo unspecified)	-23.1%	–	18.4 µM [falling, partial curve]
COc1nc(Cc2ccc(Cl)cc2)nc2ccccc12	19.4%	–	–
Cc1nc2ccccc2c(=O)n1C1CCCCCC1	-15.3%	–	–
CC(=O)Oc1ccc(-c2cccc(C(=O)N3CCCCC3)c2)cc1	-29.4%	0.231 µM [falling, full curve, poor fit]	6.51 µM [falling, single point]
CCN(Cc1cc2cc(C)ccc2[nH]c1=O)S(=O)(=O)c1ccccc1	42.2%	13 µM [rising, partial curve, poor fit]	0.146 µM [falling, full curve, poor fit]
Cc1nn(-c2ccc(N3CCOCC3)nn2)c(C)c1CCC(=O)Nc1ccccc1	–	–	29.1 µM [rising, single point]
Cc1ccc(NC(=O)c2cc(C)nc3ccccc23)cc1	11.8%	–	20.6 µM [falling, single point]
CC(C)Oc1cccc(C(=O)NC(=S)Nc2ccc3c4c(cccc24)CC3)c1	-12.2%	–	0.184 µM [falling, full curve, poor fit]
CCN(CC)S(=O)(=O)c1cc(NC(=O)C(C)OC(=O)c2[nH]c(C)c(C(C)=O)c2C)ccc1C (stereo unspecified)	-35.4%	4.61 µM [falling, partial curve]	–
O=C(Nc1ccc(C(=O)N2CCCCC2)cc1)c1ccc(Br)cc1	-17.3%	–	–
CCOC(=O)Nc1ccc(S(=O)(=O)Nc2nc(C)cc(C)n2)cc1	-8.41%	2.06 µM [falling, partial curve, poor fit]	18.4 µM [falling, single point]
Cc1c(C)n(CCCN(C)C)c2ncnc(NCc3ccccc3)c12	52.8%	29.1 µM [rising, single point]	–
CCCCNC(=S)NNC(=O)c1ccc(Br)o1	2.57%	–	2.91 µM [rising, partial curve]
COc1ccc(CCC(=O)Nc2cc(Cl)ccc2OC)cc1	176%	6.51 µM [rising, partial curve]	20.6 µM [rising, partial curve]
O=C(c1cnn2c(C(F)(F)F)cc(-c3ccco3)nc12)N1CCCc2ccccc21	-1.44%	–	–
Cc1nn(CC(=O)O)c(C)c1Cl	-17%	–	0.146 µM [falling, full curve, poor fit]
CCCC[C@@H]1CNCCN1CCCc1cc(OC)c(OC)c(OC)c1	-24.4%	0.146 µM [falling, full curve, poor fit]	0.411 µM [falling, full curve]

Compound	cell number change	AC50 [1]	AC50 [2]
Cc1ccc(-c2cc(C(=O)N/N=C/c3ccco3)[nH]n2)cc1	-39.9%	32.6 µM [falling, single point]	–
CCOC(=O)c1cnc(SCC(C)C)nc1N	-11.5%	–	–
CCCC(C)NC(=O)Cc1ccc(Br)cc1 (stereo unspecified)	-1.49%	–	2.06 µM [falling, partial curve]
COc1ccc(-c2nn(-c3ccccc3)cc2CO)cc1	5.06%	0.731 µM [rising, partial curve, poor fit]	–
O=C(O)c1cc(-c2c[nH]c3ccccc23)nc2ccc3ccccc3c12	34.4%	29.1 µM [rising, single point]	–
O=C(CN(CCCN1CCOCC1)C(=O)Cn1nnc(-c2ccc(F)cc2)n1)NC1CCCCC1	0.263%	–	2.31 µM [falling, partial curve, poor fit]
CC12CCC(C/C1=N/O)C2(C)CBr (stereo unspecified)	-25.1%	2.06 µM [falling, partial curve, poor fit]	2.59 µM [falling, full curve]
CNC(=S)N/N=C/c1cn(Cc2ccc(C)cc2)c2ccccc12	-3.47%	–	–
CC12CCC(C(=O)NNc3ccc([N+](=O)[O-])cc3)(CC1=O)C2(C)C (stereo unspecified)	-0.393%	–	–
CCS(=O)(=O)c1nc2ccccc2n1Cc1ccccn1	-46.3%	29.1 µM [falling, single point]	29.1 µM [falling, single point]
COc1ccc(-n2nc3ccc(N)cc3n2)cc1Cl	-13.9%	–	29.1 µM [falling, single point]
CCn1c(CNC(=O)COc2ccc(C(C)C)cc2)nnc1SCC(=O)Nc1ccccc1	53.8%	23.1 µM [rising, single point]	–
COc1ccc(CCNC(=O)CCc2ccc(S(=O)(=O)NCC(C)C)cc2)cc1OC	-31%	14.6 µM [falling, partial curve, poor fit]	11.6 µM [falling, partial curve, poor fit]
O=C(Nc1ccccc1)N1CCSc2cc(Cl)ccc21	60.1%	23.1 µM [rising, partial curve, poor fit]	–
O=C(NCCCn1ccnc1)c1sc2cccc(F)c2c1Cl	1.39%	0.82 µM [rising, full curve, poor fit]	1.3 µM [rising, partial curve]
CC1(C)CC(n2c(NCCO)nc3c(c2=O)C2(CCCC2)Cc2ccccc2-3)CCO1 (stereo unspecified)	-2.67%	–	0.103 µM [falling, full curve, poor fit]
Cc1onc(-c2c(F)cccc2Cl)c1C(=O)OCC(=O)Nc1c(C)n(C)n(-c2ccccc2)c1=O	-21.9%	–	14.6 µM [falling, partial curve]
CCCCN(C(=O)c1cnc2n(c1=O)CCS2)c1ccccc1	5.74%	1.16 µM [falling, full curve]	–
Cc1ccc(NC(=O)CSc2nncn2N)cc1C	30.3%	0.0651 µM [rising, full curve, poor fit]	–

Compound	cell number change	AC50 [1]	AC50 [2]
Cc1cccc(N2C(=O)CN=C2Nc2nc(C)cc(C)n2)c1	33.4%	6.51 µM [rising, partial curve]	0.731 µM [rising, full curve]
CCN(CC)CCN(C(=O)c1ccc(S(=O)(=O)N(CC)c2ccccc2)cc1)c1nc2c(OC)ccc(OC)c2s1	-0.215%	–	0.82 µM [rising, single point]
CC(C)N1C(=O)/C(=C\c2nc3ccccc3c(=O)[nH]2)c2ccccc21	-5.27%	0.00461 µM [rising, full curve, poor fit]	0.00461 µM [rising, full curve, poor fit]
COc1cn(-c2ccccc2)nc1C(=O)Nc1ccc(C)cc1	33.3%	13 µM [rising, partial curve, poor fit]	6.51 µM [rising, single point]
CCOc1cc(/C=N/O)ccc1OCC(=O)Nc1cccc(C)c1	28.3%	–	–
O=C(N/N=C/c1ccc(OC(F)F)cc1OC(F)F)c1cccc(S(=O)(=O)N2CCOCC2)c1	57.8%	5.8 µM [rising, full curve]	4.61 µM [rising, partial curve]
CC(=O)OC[C@H]1COc2ccc3ccccc3c2[C@H]1N(C)C(C)=O	-51.4%	1.03 µM [falling, full curve, poor fit]	0.58 µM [falling, full curve]
Cc1ccc2c(CC(=O)NCc3ccc4c(c3)OCO4)coc2c1	23.9%	–	29.1 µM [rising, single point]
O=C(CSc1ccccn1)Nc1ccc(Cl)cn1	-13.7%	–	0.58 µM [falling, partial curve, poor fit]
O=C(COc1ccc(S(=O)(=O)N2CCOCC2)cc1)NCCN1CCOCC1	11.8%	–	–
CC(Oc1ccc(Cl)cc1Cl)C(=O)N/N=C1\CCCc2ccccc21 (stereo unspecified)	22.5%	0.092 µM [rising, full curve, poor fit]	0.058 µM [rising, partial curve, poor fit]
O=C(CSc1n[nH]c(-c2ccccc2F)n1)Nc1cc(F)ccc1F	22.7%	–	29.1 µM [falling, partial curve, poor fit]
CC1CCN(C(=O)C2CCC(=O)N(Cc3ccc(Cl)cc3)C2)CC1 (stereo unspecified)	–	–	18.4 µM [rising, single point]
CC(=O)c1ccc(N2CCN(S(=O)(=O)c3cn(C)c(C)n3)CC2)cc1	43.6%	20.6 µM [rising, partial curve]	25.9 µM [rising, partial curve]
CCc1ccc2nc(N(CCCN(C)C)C(=O)c3ccc(C(=O)c4ccccc4)cc3)sc2c1	-30.4%	3.26 µM [rising, partial curve, poor fit]	2.06 µM [rising, partial curve, poor fit]
Cc1ccc(S(=O)(=O)NCC(=O)N(CC(=O)NC2CCCCC2)CC2CCCO2)cc1 (stereo unspecified)	48.6%	20.6 µM [rising, single point]	6.51 µM [falling, single point]
N#Cc1ccc(Oc2ccc(S(=O)(=O)N3CCCC3)cn2)cc1	10%	–	–
COC(=O)c1cc2c(ccn2-c2ccc(F)cc2)n1CC(=O)C(C)(C)C	-29.4%	–	0.184 µM [falling, full curve, poor fit]
O=C(CC(SCc1ccco1)c1ccc(O)cc1)c1cccs1 (stereo unspecified)	-31.1%	7.31 µM [falling, partial curve]	29.1 µM [falling, single point]

Four entries from above, arranged by count of non-hydrogen atoms, smallest number first.
Compound	cell number change	AC50 [1]	AC50 [2]
CCCC(C)NC(=O)Cc1ccc(Br)cc1 (stereo unspecified)	-1.49%	–	2.06 µM [falling, partial curve]
Cc1cccc(N2C(=O)CN=C2Nc2nc(C)cc(C)n2)c1	33.4%	6.51 µM [rising, partial curve]	0.731 µM [rising, full curve]
CC(C)N1C(=O)/C(=C\c2nc3ccccc3c(=O)[nH]2)c2ccccc21	-5.27%	0.00461 µM [rising, full curve, poor fit]	0.00461 µM [rising, full curve, poor fit]
Cc1ccc(S(=O)(=O)NCC(=O)N(CC(=O)NC2CCCCC2)CC2CCCO2)cc1 (stereo unspecified)	48.6%	20.6 µM [rising, single point]	6.51 µM [falling, single point]
